Numbering of substitutions follows the chain as printed. No constants are given. Whether binding was seen depends on the method and setting. Binding seen in cells or lysates may run through a third protein. Binding can be weak; no strength is given. Tags and fused reporters may be left off the sequences shown.
Assays:
Experiment in all cases: co-IP; FLAG-TNK1 (WT or mutants) precipitated on anti-DYKDDDDK resin from HEK-293T lysate (10 mM HEPES KOH pH 7.5, 150 mM KCl, 0.01% IGEPAL), 1 h 4 °C, washed with PBS; immunoblotted for 14-3-3 or ubiquitin; in Fig. 2c cells treated with 1 uM kinase inhibitors for 4 h
FLAG-TNK1 S502A (human) = biological target: T1, FLAG-TNK1 S502A (human) (UniProt Q13470)
T1 sequence: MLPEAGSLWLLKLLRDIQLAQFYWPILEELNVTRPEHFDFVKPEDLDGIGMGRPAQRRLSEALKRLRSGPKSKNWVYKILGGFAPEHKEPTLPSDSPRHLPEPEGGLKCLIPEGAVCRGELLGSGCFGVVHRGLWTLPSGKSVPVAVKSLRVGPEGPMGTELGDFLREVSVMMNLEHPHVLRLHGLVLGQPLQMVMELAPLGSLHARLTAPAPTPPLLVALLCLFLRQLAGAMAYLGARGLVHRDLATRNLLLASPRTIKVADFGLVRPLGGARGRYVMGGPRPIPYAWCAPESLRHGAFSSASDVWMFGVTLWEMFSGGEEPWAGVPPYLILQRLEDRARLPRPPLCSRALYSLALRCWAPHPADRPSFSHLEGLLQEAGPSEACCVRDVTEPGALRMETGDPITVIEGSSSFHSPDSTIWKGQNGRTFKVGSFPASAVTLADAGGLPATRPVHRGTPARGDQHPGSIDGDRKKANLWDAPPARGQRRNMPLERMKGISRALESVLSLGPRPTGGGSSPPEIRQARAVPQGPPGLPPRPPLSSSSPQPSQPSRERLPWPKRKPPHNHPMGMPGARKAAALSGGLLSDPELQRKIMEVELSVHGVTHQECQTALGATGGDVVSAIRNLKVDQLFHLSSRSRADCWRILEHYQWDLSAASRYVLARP

FLAG-TNK1 T392A (human) = biological target: T2, FLAG-TNK1 T392A (human) (UniProt Q13470)
T2 sequence: T1 sequence with T392A, A502S

FLAG-TNK1 S500A (human) = biological target: T3, FLAG-TNK1 S500A (human) (UniProt Q13470)
T3 sequence: T1 sequence with S500A, A502S

Substance: 14-3-3 (endogenous, isoform not told) (human (endogenous in HEK-293T or A549))
- binding (FLAG-TNK1 S502A (human)): binds weakly
- binding (FLAG-TNK1 T392A (human)): binds
- binding (FLAG-TNK1 S500A (human)): binds

From article PMC8429728, “TNK1 is a ubiquitin-binding and 14-3-3-regulated kinase that can be targeted to block tumor growth” (Nature Communications, 2021)
